# Tested on: HMLER-shEcad cells
# Experiment: Cellular uptake, copper content in whole cell by ICP-MS
# Type: cell-based, human
# Conditions: 5 µM for 24 h
row,Compound,Copper content in whole cell
1,"O=C([O-])Cc1ccccc1Nc1c(Cl)cccc1Cl.[Cu+].c1ccc(P(c2ccccc2)c2ccccc2)cc1.c1ccc(P(c2ccccc2)c2ccccc2)cc1 [compound 1, [Cu^I(diclofenac)(PPh3)2]]",235 ± 5 ng of Cu/million cells
2,"COc1ccc2cc(C(C)C(=O)[O-])ccc2c1.[Cu+].c1ccc(P(c2ccccc2)c2ccccc2)cc1.c1ccc(P(c2ccccc2)c2ccccc2)cc1 [compound 2, [Cu^I(naproxen)(PPh3)2]]",259 ± 5 ng of Cu/million cells
3,"O=C([O-])c1ccccc1O.[Cu+].c1ccc(P(c2ccccc2)c2ccccc2)cc1.c1ccc(P(c2ccccc2)c2ccccc2)cc1 [compound 3, [Cu^I(salicylate)(PPh3)2]]",302 ± 4 ng of Cu/million cells
